{"source": "patent US5462927A", "about": "“Peptides aiding nerve regeneration” (The Administrators of the Tulane Educational Fund, priority 1992, dated 1995)", "system": "sectioned sciatic nerve; common extensor muscle of the finger", "experiment": "Muscle weight after sciatic nerve section", "format": "in vivo, rat", "note": "Square brackets hold non-standard residues; d marks the D form. Peptide text beside a SMILES is read from it."}
{"smiles": "C[C@@H](N)C(=O)N[C@@H](CCC(N)=O)C(=O)N[C@@H](Cc1ccc(O)cc1)C(=O)N[C@@H](Cc1ccccc1)C(=O)N[C@@H](CCCNC(=N)N)C(=O)N[C@@H](Cc1c[nH]c2ccccc12)C(=O)NCC(N)=O", "note": "[BIM-22015, D--Ala--Gln--Tyr--Phe--Arg--Trp--Gly--NH2] (H-[dA]QYFRWG-NH2)", "values": [{"measurement": "Animal Weight 35d. p.o.", "setting": "Group 2: Tissue col 10.0 μg/0.5 ml (topical)", "value": 321.0, "unit": "g"}, {"measurement": "Animal Weight 35d. p.o.", "setting": "Group 3: Tissue col 1.1 μg/10.5 ml (topical)", "value": 280.5, "unit": "g"}, {"measurement": "Animal Weight 35d. p.o.", "setting": "Group 4: s.c. 5 μg 1 kg/day (18 days)", "value": 322.5, "unit": "g"}, {"measurement": "association of the increase in muscle weight with edema or lipid infiltration", "setting": "s.c. administration", "value": "not associated with edema or lipid infiltration"}]}
